{"source": "paper PMC12670160", "about": "“A drug-repurposing screen of FDA- and EMA-approved drugs identifies two NF-κB inhibitors active against eumycetoma” (Journal of Antimicrobial Chemotherapy, 2025)", "system": "M. mycetomatis strain mm55", "conditions": "96 h, 2 µM", "key": {"[1]": {"conditions": "primary screen, metabolic activity vs growth control, inhibitor"}}, "note": "Where a name gives a salt, the structure may show the parent alone. Read-outs that look alike come from different tables or passages of the source. Out of some 5,300 compounds screened, about 130 (2.5%) showed an effect of 50% or more. This is one part of the list.", "data": [{"smiles": "CCN(C(C)=O)c1cccc(-c2ccnc3c(C#N)cnn23)c1", "note": "[ONC0004001, zaleplon]", "values": [{"measurement": "% viability", "setting": "m. mycetomatis hyphae", "value": 74.66, "unit": "%"}]}, {"smiles": "CN(C)NC(=O)CCC(=O)O", "note": "[ONC0000066, daminozide]", "values": [{"measurement": "% viability", "setting": "m. mycetomatis hyphae", "value": 102.5, "unit": "%"}]}, {"smiles": "Cc1cccc(C)c1N=C1NCCCS1", "note": "[ONC0000628, xylazine]", "values": [{"measurement": "% viability", "setting": "m. mycetomatis hyphae", "value": 103.4, "unit": "%"}]}, {"smiles": "CN(C)CCNc1nc2cc(O)ccc2c2c1C(=O)c1ccccc1-2", "note": "[ONC0002255, tas103 dihydrochloride]", "values": [{"measurement": "% viability", "setting": "m. mycetomatis hyphae", "value": 114.4, "unit": "%"}]}, {"smiles": "C1CCC(NC2CCCCC2)CC1", "note": "[ONC0002909, dicyclohexylamine]", "values": [{"measurement": "% viability", "setting": "m. mycetomatis hyphae", "value": 81.67, "unit": "%"}]}, {"smiles": "OC1(c2ccc(Cl)cc2)c2ccccc2C2=NCCN21", "note": "(stereo not drawn) [ONC0005297, mazindol]", "values": [{"measurement": "% viability", "setting": "m. mycetomatis hyphae", "value": 110.5, "unit": "%"}]}, {"smiles": "C[C@]12CCC(=O)C=C1CC[C@@H]1[C@@H]2C(=O)C[C@]2(C)C(=O)CC[C@@H]12", "note": "[ONC0001042, adrenosterone]", "values": [{"measurement": "% viability", "setting": "m. mycetomatis hyphae", "value": 82.56, "unit": "%"}]}, {"smiles": "CC(N)Cc1cccc(O)c1", "note": "(stereo not drawn) [ONC0002604, gepefrine]", "values": [{"measurement": "% viability", "setting": "m. mycetomatis hyphae", "value": 85.86, "unit": "%"}]}, {"smiles": "CC(C)C[C@H](CN)CC(=O)O", "note": "[ONC0004046, pregabalin]", "values": [{"measurement": "% viability", "setting": "m. mycetomatis hyphae", "value": 71.03, "unit": "%"}]}, {"smiles": "CC[C@H]1[C@@H]2C[C@H]3[C@@H]4N(C)c5ccccc5[C@]45C[C@@H]([C@H]2[C@H]5O)N3[C@@H]1O", "note": "[ONC0003392, ajmaline]", "values": [{"measurement": "% viability", "setting": "[1]", "value": 69.14, "unit": "%"}]}, {"smiles": "OCC(Br)(Br)Br", "note": "[ONC0003374, 222tribromoethanol]", "values": [{"measurement": "% viability", "setting": "m. mycetomatis hyphae", "value": 70.94, "unit": "%"}]}, {"smiles": "C[C@]12Cc3c[nH]nc3C[C@@H]1CC[C@@H]1[C@@H]2CC[C@@]2(C)[C@H]1CC[C@]2(C)O", "note": "[ONC0002121, stanozolol]", "values": [{"measurement": "% viability", "setting": "m. mycetomatis hyphae", "value": 96.32, "unit": "%"}]}, {"smiles": "O=C(O)C(F)(F)C(F)(F)C(F)(F)C(F)(F)C(F)(F)C(F)(F)C(F)(F)F", "note": "[ONC0004483, pentadecafluorooctanoic acid]", "values": [{"measurement": "% viability", "setting": "m. mycetomatis hyphae", "value": 100.8, "unit": "%"}]}, {"smiles": "Cc1cc(C(=O)CN2CCCC2)c(C)n1-c1ccc(F)cc1", "note": "[ONC0005142, iu1]", "values": [{"measurement": "% viability", "setting": "m. mycetomatis hyphae", "value": 96.41, "unit": "%"}]}, {"smiles": "C[C@@]12N[C@@H](Cc3ccccc31)c1ccccc12", "note": "[ONC0002573, dizocilpine maleate]", "values": [{"measurement": "% viability", "setting": "m. mycetomatis hyphae", "value": 62.56, "unit": "%"}]}, {"smiles": "C[C@H](N)C(=O)NCC(=O)N[C@H]1CSSC[C@@H](C(=O)O)NC(=O)[C@H](CO)NC(=O)[C@H]([C@@H](C)O)NC(=O)[C@H](Cc2ccccc2)NC(=O)[C@H]([C@@H](C)O)NC(=O)[C@H](CCCCN)NC(=O)[C@H](Cc2c[nH]c3ccccc23)NC(=O)[C@H](Cc2ccccc2)NC(=O)[C@H](Cc2ccccc2)NC(=O)[C@H](CC(N)=O)NC(=O)[C@H](CCCCN)NC1=O", "note": "[ONC0001935, somatostatin]", "values": [{"measurement": "% viability", "setting": "m. mycetomatis hyphae", "value": 65.38, "unit": "%"}]}, {"smiles": "NCc1cc(=O)[nH]o1", "note": "[ONC0000178, muscimol]", "values": [{"measurement": "% viability", "setting": "m. mycetomatis hyphae", "value": 77.49, "unit": "%"}]}, {"smiles": "CC(=O)[C@H]1CC[C@H]2[C@@H]3CC[C@@H]4C[C@H](O)CC[C@]4(C)[C@H]3CC[C@]12C", "note": "[ONC0001671, allopregnanolone]", "values": [{"measurement": "% viability", "setting": "m. mycetomatis hyphae", "value": 102.1, "unit": "%"}]}, {"smiles": "COC(=O)C(c1ccccc1)C1CCCCN1", "note": "(stereo not drawn) [ONC0003968, methylphenidate hydrochloride]", "values": [{"measurement": "% viability", "setting": "m. mycetomatis hyphae", "value": 55.87, "unit": "%"}]}, {"smiles": "CCOC(=O)c1ccccc1OC(N)=O", "note": "[ONC0003220, ethyl2carbamoyloxybenzoate]", "values": [{"measurement": "% viability", "setting": "m. mycetomatis hyphae", "value": 78.7, "unit": "%"}]}, {"smiles": "CN1C2C=C(c3sccc3Br)CC1CC2", "note": "(stereo not drawn) [ONC0000153, ns3861]", "values": [{"measurement": "% viability", "setting": "m. mycetomatis hyphae", "value": 72.45, "unit": "%"}]}, {"smiles": "COc1cc(Br)c(Nc2nc(-c3c(C)nc4ncccn34)cs2)c(Br)c1", "note": "[ONC0004411, ptc209]", "values": [{"measurement": "% viability", "setting": "m. mycetomatis hyphae", "value": 113.4, "unit": "%"}]}, {"smiles": "COC(=O)C1=C(C)NC(C)=C(C(=O)OCCCN2CCC(c3ccccc3)(c3ccccc3)CC2)[C@@H]1c1cccc([N+](=O)[O-])c1", "note": "[ONC0000198, dexniguldipine]", "values": [{"measurement": "% viability", "setting": "m. mycetomatis hyphae", "value": 76.6, "unit": "%"}]}, {"smiles": "O=c1[nH]c(=O)n(Cl)c(=O)n1Cl", "note": "[ONC0005487, troclosene sodium]", "values": [{"measurement": "% viability", "setting": "m. mycetomatis hyphae", "value": 96.21, "unit": "%"}]}, {"smiles": "CS(=O)(=O)CS(=O)(=O)OCCCl", "note": "[ONC0005355, clomesone]", "values": [{"measurement": "% viability", "setting": "m. mycetomatis hyphae", "value": 92.35, "unit": "%"}]}, {"smiles": "COc1ccc(C(=O)c2c(C)n(CCN3CCOCC3)c3cc(I)ccc23)cc1", "note": "[ONC0003455, am630 iodopravadoline]", "values": [{"measurement": "% viability", "setting": "m. mycetomatis hyphae", "value": 49.32, "unit": "%"}]}, {"smiles": "O=P1(NCCCl)OCCCN1CCCl", "note": "(stereo not drawn) [ONC0003997, ifosfamide]", "values": [{"measurement": "% viability", "setting": "m. mycetomatis hyphae", "value": 56.09, "unit": "%"}]}, {"smiles": "Oc1ccc2c3c1O[C@H]1c4oc5ccccc5c4C[C@@]4(O)[C@@H](C2)N(CC2CC2)CC[C@]314", "note": "[ONC0001439, naltriben]", "values": [{"measurement": "% viability", "setting": "m. mycetomatis hyphae", "value": 49.95, "unit": "%"}]}, {"smiles": "CCCCC/C=C\\C/C=C\\C/C=C\\C/C=C\\CCCC(=O)Nc1ccc(O)cc1", "note": "[ONC0000209, am404]", "values": [{"measurement": "% viability", "setting": "m. mycetomatis hyphae", "value": 63.87, "unit": "%"}]}, {"smiles": "O=C1CC2OCC=C3CN4CC[C@]56c7ccccc7N1C5[C@H]2[C@H]3CC46", "note": "(stereo partly drawn) [ONC0003403, strychnine sulfate]", "values": [{"measurement": "% viability", "setting": "m. mycetomatis hyphae", "value": 68.79, "unit": "%"}]}, {"smiles": "N#Cc1ccccc1-c1cc(-c2ccccn2)cn(-c2ccccc2)c1=O", "note": "[ONC0001116, perampanel]", "values": [{"measurement": "% viability", "setting": "m. mycetomatis hyphae", "value": 62.98, "unit": "%"}]}, {"smiles": "O=C(Oc1ccc([N+](=O)[O-])cc1)N1CCC(C(O)(c2ccc3c(c2)OCO3)c2ccc3c(c2)OCO3)CC1", "note": "[ONC0004330, jzl184]", "values": [{"measurement": "% viability", "setting": "m. mycetomatis hyphae", "value": 83.24, "unit": "%"}]}, {"smiles": "C=C1[C@@H](C)[C@H]2[C@H](Cc3ccccc3)NC(=O)[C@]23OC(=O)/C=C/[C@H](O)CCC[C@@H](C)C/C=C/[C@H]3[C@@H]1O", "note": "[ONC0005534, cytochalasin b]", "values": [{"measurement": "% viability", "setting": "[1]", "value": 102.9, "unit": "%"}]}, {"smiles": "NC(=O)C[S+]([O-])C(c1ccccc1)c1ccccc1", "note": "(stereo not drawn) [ONC0003965, modafinil]", "values": [{"measurement": "% viability", "setting": "m. mycetomatis hyphae", "value": 69.84, "unit": "%"}]}, {"smiles": "N=CNc1ccc2[nH]c3c(c2c1)C[C@@]1(O)C2Cc4ccc(O)c5c4[C@@]1(CCN2CC1CC1)[C@H]3O5", "note": "[ONC0000051, gnti]", "values": [{"measurement": "% viability", "setting": "m. mycetomatis hyphae", "value": 53.25, "unit": "%"}]}, {"smiles": "Oc1ncc(N(CCCl)CCCl)c(O)n1", "note": "[ONC0005606, uracilmustard]", "values": [{"measurement": "% viability", "setting": "m. mycetomatis hyphae", "value": 90.14, "unit": "%"}]}, {"smiles": "Clc1ccccc1C(c1ccccc1)(c1ccccc1)n1cccn1", "note": "[ONC0001139, tram34]", "values": [{"measurement": "% viability", "setting": "m. mycetomatis hyphae", "value": 85.9, "unit": "%"}]}, {"smiles": "C=C[C@H]1C[N@]2CC[C@H]1C[C@@H]2[C@@H](OC(=O)OCC)c1ccnc2ccc(OC)cc12", "note": "[ONC0003281, quinine ethyl carbonate]", "values": [{"measurement": "% viability", "setting": "m. mycetomatis hyphae", "value": 97.38, "unit": "%"}]}, {"smiles": "CN1[C@@H]2CC[C@H]1C[C@@H](OC1c3ccccc3CCc3ccccc31)C2", "note": "[ONC0002966, deptropine]", "values": [{"measurement": "% viability", "setting": "[1]", "value": 88.93, "unit": "%"}]}]}
